Reference: patent publication US6844320B1, “Treatment of preeclampsia, toxemia and preterm labor with combination of progestational agent and a nitric oxide synthase substrate and/or donor” (Board of Regents, The University of Texas System, priority 1993, dated 2005)

Test system: pregnant rats
Assay: L-NAME infusion to pregnant rats: delivery and pups delivered
Type: in vivo
Text: The data in Table 2 below show the delivery and the pups delivered of L-NAME infusion to pregnant rats.

For COC(=O)[C@@H](N)CCCNC(=N)N[N+](=O)[O-] [L-NAME, N^G-nitro-L-arginine methyl ester], the “Total # of pups” value (L-NAME 25 mg/day, 9 animals) was 65 and the “Total # of pups” value (L-NAME 50 mg/day, 10 animals) was 56.
